Article PMC7346168

T1: 2-CysPRXA C54D (pseudo-hyperoxidized variant) (Arabidopsis) (UniProt Q96291)
T1 sequence: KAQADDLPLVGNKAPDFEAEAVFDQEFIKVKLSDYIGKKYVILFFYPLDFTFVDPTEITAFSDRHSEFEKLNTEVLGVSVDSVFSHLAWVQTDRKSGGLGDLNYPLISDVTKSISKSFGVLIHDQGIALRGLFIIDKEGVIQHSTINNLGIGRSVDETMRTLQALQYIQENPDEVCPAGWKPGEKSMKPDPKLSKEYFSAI

T2: 2-CysPRXA C54S (pseudo-reduced variant) (Arabidopsis) (UniProt Q96291)
T2 sequence: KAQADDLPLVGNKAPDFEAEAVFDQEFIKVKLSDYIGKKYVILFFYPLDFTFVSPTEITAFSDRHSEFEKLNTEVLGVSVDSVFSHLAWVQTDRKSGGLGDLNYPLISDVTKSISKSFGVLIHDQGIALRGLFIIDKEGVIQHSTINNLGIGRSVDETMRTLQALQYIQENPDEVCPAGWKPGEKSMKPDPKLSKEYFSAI

B1: Bifunctional protein FolD 2 (protein, UniProt Q9LHH7 1-299)
chain: MASSSDHTAKIIDGKAIAHTIRSEIAEEVRGLSEKHGKVPGLAVVIVGSRKDSQTYVNTKRKACAEVGIKSFDVGLPEEVSEADLISKVHELNSNPDVHGILVQLPLPKHINEEHILGAISIDKDVDGFHPLNIGKLAMKGREPLFLPCTPKGCLELLARSGVKIKGQRAVVVGRSNIVGLPVSLLLLKADATVTTVHSHTKDPEAIIREADIVIAACGQAHMIKGNWIKPGAAVIDVGTNAVSDPSKKSGYRLVGDVDFAEASKVAGFITPVPGGVGPMTVAMLLRNTVDGAKRVFGE
B2: Peroxiredoxin Q (protein, UniProt Q9LU86 68-216)
chain: KVNKGQAAPDFTLKDQNGKPVSLKKYKGKPVVLYFYPADETPGCTKQACAFRDSYEKFKKAGAEVIGISGDDSASHKAFASKYKLPYTLLSDEGNKVRKDWGVPGDLFGALPGRQTYVLDKNGVVQLIYNNQFQPEKHIDETLKFLKAA
B3: Plastidial pyruvate kinase 2 (protein, UniProt Q9FLW9 64-579)
chain: SARVETEVIPVSPEDVPNREEQLERLLEMQQFGDTSVGMWSKPTVRRKTKIVCTVGPSTNTREMIWKLAEAGMNVARMNMSHGDHASHKKVIDLVKEYNAQTKDNTIAIMLDTKGPEVRSGDLPQPIMLDPGQEFTFTIERGVSTPSCVSVNYDDFVNDVEAGDMLLVDGGMMSFMVKSKTKDSVKCEVVDGGELKSRRHLNVRGKSATLPSITEKDWEDIKFGVENKVDFYAVSFVKDAQVVHELKKYLQNSGADIHVIVKIESADSIPNLHSIITASDGAMVARGDLGAELPIEEVPILQEEIINLCRSMGKAVIVATNMLESMIVHPTPTRAEVSDIAIAVREGADAVMLSGETAHGKFPLKAAGVMHTVALRTEATITSGEMPPNLGQAFKNHMSEMFAYHATMMSNTLGTSTVVFTRTGFMAILLSHYRPSGTIYAFTNEKKIQQRLALYQGVCPIYMEFTDDAEETFANALATLLKQGMVKKGEEIAIVQSGTQPIWRSQSTHNIQVRKV
B4: 30S ribosomal protein S6 alpha (protein, UniProt Q8VY91 60-207)
chain: DFSGTFFEGGFGSDDDPTSPSGSGVSTALEDKPEPQCPPGLRQYETMAVLRPDMSEDERLGLTQKYEELLVAGGGMYVEVFNRGVIPLAYSIRKKNKAGETNTYLDGIYLLFTYFTKPESIVPLETVLTADDDIIRSSSFKIKKRKYN
B5: Ferredoxin--NADP reductase (AT1G20020) (protein, UniProt Q8W493 58-369)
chain: ITTETDTPTPAKKVEKVSKKNEEGVIVNRYRPKEPYTGKCLLNTKITADDAPGETWHMVFSHQGEIPYREGQSVGVIADGIDKNGKPHKVRLYSIASSALGDLGNSETVSLCVKRLVYTNDQGETVKGVCSNFLCDLAPGSDVKLTGPVGKEMLMPKDPNATVIMLATGTGIAPFRSFLWKMFFEKHDDYKFNGLAWLFLGVPTTSSLLYQEEFDKMKAKAPENFRVDYAISREQANDKGEKMYIQTRMAQYAAELWELLKKDNTFVYMCGLKGMEKGIDDIMVSLAANDGIDWFDYKKQLKKAEQWNVEVY
B6: Protein MET1 (protein, UniProt Q94BS2 74-335)
chain: AEAGGDGEEEEKYETYEIEVEQPYGLKFRKGRDGGTYIDAILPGGSADKTGKFTVGDRVIATSAVFGTEIWPAAEYGRTMYTIRQRIGPLLMQMEKRNGKAEDTGELTEKEIIRAERNAGYISSRLREIQMQNYLKKKEQKAQREKDLREGLQFSKNGKYEEALERFESVLGSKPTPEEASVASYNVACCYSKLNQVQAGLSALEEALKSGYEDFKRIRSDPDLETLRKSKDFDPLLKQFDESFINESAINAIKSLFGFNKK
B7: Glutathione S-transferase F8 (protein, UniProt Q96266 50-263)
chain: ASIKVHGVPMSTATMRVLATLYEKDLQFELIPVDMRAGAHKQEAHLALNPFGQIPALEDGDLTLFESRAITQYLAEEYSEKGEKLISQDCKKVKATTNVWLQVEGQQFDPNASKLAFERVFKGMFGMTTDPAAVQELEGKLQKVLDVYEARLAKSEFLAGDSFTLADLHHLPAIHYLLGTDSKVLFDSRPKVSEWIKKISARPAWAKVIDLQKQ
B8: Protease Do-like 1 (protein, UniProt O22609 106-439)
chain: FVVSTPKKLQTDELATVRLFQENTPSVVYITNLAVRQDAFTLDVLEVPQGSGSGFVWDKQGHIVTNYHVIRGASDLRVTLADQTTFDAKVVGFDQDKDVAVLRIDAPKNKLRPIPVGVSADLLVGQKVFAIGNPFGLDHTLTTGVISGLRREISSAATGRPIQDVIQTDAAINPGNSGGPLLDSSGTLIGINTAIYSPSGASSGVGFSIPVDTVGGIVDQLVRFGKVTRPILGIKFAPDQSVEQLGVSGVLVLDAPPSGPAGKAGLQSTKRDGYGRLVLGDIITSVNGTKVSNGSDLYRILDQCKVGDEVTVEVLRGDHKEKISVTLEPKPDES
B9: Protein COLD-REGULATED 15A (protein, UniProt Q42512 41-139)
chain: SQRKKSLIYAAKGDGNILDDLNEATKKASDFVTDKTKEALADGEKAKDYVVEKNSETADTLGKEAEKAAAYVEEKGKEAANKAAEFAEGKAGEAKDATK
B10: Protein COLD-REGULATED 15B (protein, UniProt Q9SIN5 42-141)
chain: AQRKKSLIYAVKSDGNILDDLNEATKKASDFVTDKTKEALADGEKTKDYIVEKTIEANETATEEAKKALDYVTEKGKEAGNKAAEFVEGKAEEAKNATKS
B11: Soluble pyrophosphatase 6 (protein, UniProt Q9LXC9 67-300)
chain: VQEEGPAESLDYRVFFLDGSGKKVSPWHDIPLTLGDGVFNFIVEIPKESKAKMEVATDEDFTPIKQDTKKGKLRYYPYNINWNYGLLPQTWEDPSHANSEVEGCFGDNDPVDVVEIGETQRKIGDILKIKPLAALAMIDEGELDWKIVAISLDDPKAHLVNDVEDVEKHFPGTLTAIRDWFRDYKIPDGKPANRFGLGDKPANKDYALKIIQETNESWAKLVKRSVDAGDLSLY
B12: Arginase 2 (protein, UniProt Q9ZPF5 27-344)
chain: PTSLVETGQNRVIDASLTLIRERAKLKGELVRLIGGAKATTALLGVPLGHNSSFLEGPALAPPHVREAIWCGSTNSTTEEGKELKDPRVLSDVGDIPVQEIREMGVDDDRLMKVVSESVKLVMEEEPLRPLVIGGDHSISYPVVRAVSEKLGGPVDILHLDAHPDIYDRFEGNYYSHASSFARIMEGGYARRLLQVGIRSINKEGREQGKRFGVEQYEMRTFSKDRQMLENLKLGEGVKGVYISIDVDCLDPGFAHGVSHFEPGGLSFRDVLNILHNLQGDLVGADVVEYNPQRDTADDMTAMVAAKFVRELAAKMSK
B13: BCCP of acetyl-CoA carboxylase 1 (protein, UniProt Q42533 83-280)
chain: SAEGKEKNSLKESSASSPELATEESISEFLTQVTTLVKLVDSRDIVELQLKQLDCELVIRKKEALPQPQAPASYVMMQQPNQPSYAQQMAPPAAPAAAAPAPSTPASLPPPSPPTPAKSSLPTVKSPMAGTFYRSPAPGEPPFIKVGDKVQKGQVLCIVEAMKLMNEIESDHTGTVVDIVAEDGKPVSLDTPLFVVQP
B14: Biotin carboxylase (protein, UniProt O04983 72-537)
chain: SGGDKILVANRGEIAVRVIRTAHEMGIPCVAVYSTIDKDALHVKLADEAVCIGEAPSNQSYLVIPNVLSAAISRGCTMLHPGYGFLSENALFVEMCRDHGINFIGPNPDSIRVMGDKATARETMKNAGVPTVPGSDGLLQSTEEAVRVANEIGFPVMIKATAGGGGRGMRLAKEPGEFVKLLQQAKSEAAAAFGNDGCYLEKFVQNPRHIEFQVLADKFGNVVHFGERDCSIQRRNQKLLEEAPSPALTAELRKAMGDAAVAAAASIGYIGVGTVEFLLDERGSFYFMEMNTRIQVEHPVTEMIYSVDLIEEQIRVAMGEKLRYKQEDIVLRGHSIECRINAEDPFKGFRPGPGRITSYLPSGGPFVRMDSHVYSDYVVPPSYDSLLGKLIVWAPTREKAIERMKRALNDTIITGVPTTINYHKLILDVEDFKNGKVDTAFIVKHEEELAEPQEIVAVKDLTNATV
B15: GDSL esterase/lipase ESM1 (protein, UniProt Q9LJG3 29-392)
chain: GEGVPNVALFTFGDSYYDAGNKVFLSQRKDLPQTYWPYGKSRDYPNGKFSDGHIVPDFIADFISIPNGVLPPVLKPGVDISRGVSFAVADASILGAPVESMTLNQQVVKFKNMKSNWNDSYIEKSLFMIYIGTEDYLNFTKANPNADASAQQAFVTNVINRLKNDIKLLYSLGASKFVVQLLAPLGCLPIVRQEYKTGNECYELLNDLAKQHNGKIGPMLNEFAKISTSPYGFQFTVFDFYNAVLRRIATGRSLNYRFFVTNTSCCGVGTHNAYGCGKGNVHSKLCEYQRSYFFFDGRHNTEKAQEEMAHLLYGADPDVVQPMTVRELIVYPTGETMREYWEPNNLAIRRRPSRDFYLGLAAYY
B16: Myrosinase 2 (protein, UniProt Q9C5C2 29-547)
chain: KPEEEITCEENVPFTCSQTDRFNKQDFESDFIFGVASSAYQIEGGRGRGLNVWDGFTHRYPEKGGADLGNGDTTCDSYRTWQKDLDVMEELGVKGYRFSFAWSRILPKGKRSRGINEDGINYYSGLIDGLIARNITPFVTLFHWDLPQSLQDEYEGFLDRTIIDDFKDYADLCFERFGDRVKHWITINQLFTVPTRGYALGTDAPGRCSQWVDKRCYGGDSSTEPYIVAHNQLLAHATVVDLYRTRYKYQGGKIGPVMITRWFLPYDDTLESKQATWRAKEFFLGWFMEPLTKGKYPYIMRKLVGNRLPKFNSTEARLLKGSYDFLGLNYYVTQYAHALDPSPPEKLTAMTDSLANLTSLDANGQPPGPPFSKGSYYHPRGMLNVMEHFKTKYGDPLIYVTENGFSTSGGPIPFTEAFHDYNRIDYLCSHLCFLRKAIKEKRVNVKGYFVWSLGDNYEFCNGYTVRFGLSYVDFNNVTADRDLKASGLWYQSFLRDTTKNQDILRSSLPFKNGDRKSLT

What follows are binders tested against T1, 2-CysPRXA C54D (pseudo-hyperoxidized variant) (Arabidopsis) (assay: affinity purification with mass spectrometry; oxidizing: his6-tagged 2-CysPRXA variant (3 mg) on Ni-NTA-agarose pretreated with 1 mM H2O2; leaf extract (50 mg protein) made with 1 mM H2O2; 50 mM HEPES pH 8.0, 1 h, 4 °C; stepwise elution with 1 M NaCl, 10 mM DTT, 250 mM imidazole; hits not found on the column without 2-CysPRX; only the target purified).

Row | Binder | binding
1 | B1 | binds
2 | B2 | binds
3 | B3 | binds

The binders below were run against T2, 2-CysPRXA C54S (pseudo-reduced variant) (Arabidopsis) (assay: affinity purification with mass spectrometry; reducing: his6-tagged 2-CysPRXA variant (3 mg) on Ni-NTA-agarose pretreated with 10 mM DTT; leaf extract (50 mg protein) made with 10 mM DTT; 50 mM HEPES pH 8.0, 1 h, 4 °C; stepwise elution with 1 M NaCl, 10 mM DTT, 250 mM imidazole; hits not found on the column without 2-CysPRX; only the target purified).

Row | Binder | binding
4 | B4 | binds
5 | B5 | binds
6 | B6 | binds
7 | B7 | binds
8 | B8 | binds
9 | B9 | binds
10 | B10 | binds
11 | B11 | binds
12 | B12 | binds
13 | B13 | binds
14 | B14 | binds
15 | B15 | binds
16 | B16 | binds

Results are given in words; binding and its absence hold for the method and conditions named. In cells and extracts the contact can be indirect. A yes stands for co-enrichment or nearness to the bait. Other partners may have been found.
